Measurements reported in the supplement of paper PMC8728848.
The other results are listed elsewhere or left out.

Legend:
Assay in all cases: glycan array binding signal (z-score within array); higher = stronger binding
Conditions in all cases: glycan notation: IUPAC condensed, linker removed
[1] = target: Gal(b1-3)GlcNAc(b1-2)Man(a1-3)[Gal(b1-3)GlcNAc(b1-2)Man(a1-6)]Man(b1-4)GlcNAc(b1-4)[Fuc(a1-6)]GlcNAc
Summary of the method: (§1)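 The binding signal is a Z-score computed within each array. Data were drawn from 3228 arrays in the Consortium for Functional Glycomics database, restricted to those with a known protein sequence. Scores were averaged over arrays of the same protein sequence at different concentrations or buffers, and over linkers, and negative values can be taken as non-binding.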

[2] = target: Gal(b1-3)GlcNAc(b1-2)Man(a1-3)[GlcNAc(b1-4)][Gal(b1-3)GlcNAc(b1-2)Man(a1-6)]Man(b1-4)GlcNAc(b1-4)GlcNAc
Summary of the method: as §1

[3] = target: Gal(b1-3)GlcNAc(b1-2)[Gal(b1-3)GlcNAc(b1-6)]Man(a1-6)[Gal(b1-3)GlcNAc(b1-2)Man(a1-3)]Man(b1-4)GlcNAc(b1-4)GlcNAc
Summary of the method: as §1

[4] = target: Gal(b1-3)GlcNAc(b1-3)Gal(b1-3)GlcNAc
Summary of the method: as §1

[5] = target: Gal(b1-3)GlcNAc(b1-3)Gal(b1-4)Glc
Summary of the method: as §1

[6] = target: Gal(b1-3)GlcNAc(b1-3)Gal(b1-4)GlcNAc
Summary of the method: as §1

[7] = target: Gal(b1-3)GlcNAc(b1-3)Gal(b1-4)GlcNAc(b1-2)Man(a1-3)[Gal(b1-3)GlcNAc(b1-3)Gal(b1-4)GlcNAc(b1-2)Man(a1-6)]Man(b1-4)GlcNAc(b1-4)GlcNAc
Summary of the method: as §1

[8] = target: Gal(b1-3)GlcNAc(b1-3)Gal(b1-4)GlcNAc(b1-2)[Gal(b1-3)GlcNAc(b1-3)Gal(b1-4)GlcNAc(b1-6)]Man(a1-6)[Gal(b1-3)GlcNAc(b1-3)Gal(b1-4)GlcNAc(b1-2)Man(a1-3)]Man(b1-4)GlcNAc(b1-4)[Fuc(a1-6)]GlcNAc
Summary of the method: as §1

[9] = target: Gal(b1-3)GlcNAc(b1-3)Gal(b1-4)GlcNAc(b1-3)Gal(b1-4)GlcNAc(b1-2)[Gal(b1-3)GlcNAc(b1-3)Gal(b1-4)GlcNAc(b1-3)Gal(b1-4)GlcNAc(b1-6)]Man(a1-6)[Gal(b1-3)GlcNAc(b1-3)Gal(b1-4)GlcNAc(b1-3)Gal(b1-4)GlcNAc(b1-2)Man(a1-3)]Man(b1-4)GlcNAc(b1-4)[Fuc(a1-6)]GlcNAc
Summary of the method: as §1

[10] = target: Gal(b1-3)GlcNAc(b1-3)Gal(b1-4)GlcNAc(b1-6)[Gal(b1-3)GlcNAc(b1-3)]Gal(b1-4)Glc
Summary of the method: as §1

[11] = target: Gal(b1-3)GlcNAc(b1-3)Gal(b1-4)[Fuc(a1-3)]GlcNAc
Summary of the method: as §1

[12] = target: Gal(b1-3)GlcNAc(b1-3)Gal(b1-4)[Fuc(a1-3)]GlcNAc(b1-6)[Gal(b1-3)GlcNAc(b1-3)]Gal(b1-4)Glc
Summary of the method: as §1

[13] = target: Gal(b1-3)GlcNAc(b1-3)GalNAc
Summary of the method: as §1

[14] = target: Gal(b1-3)GlcNAc(b1-6)Gal(b1-4)GlcNAc
Summary of the method: as §1

[15] = target: Gal(b1-3)GlcNAc(b1-6)GalNAc
Summary of the method: as §1

[16] = target: Gal(b1-3)GlcNAc(b1-6)[Gal(b1-3)]GalNAc
Summary of the method: as §1

Gal(b1-3)GlcNAc6S = target: Gal(b1-3)GlcNAc6S
Summary of the method: as §1

[17] = target: Gal(b1-3)[Fuc(a1-4)]GlcNAc
Summary of the method: as §1

[18] = target: Gal(b1-3)[Fuc(a1-4)]GlcNAc(b1-2)Man
Summary of the method: as §1

[19] = target: Gal(b1-3)[Fuc(a1-4)]GlcNAc(b1-2)Man(a1-3)[Gal(b1-3)[Fuc(a1-4)]GlcNAc(b1-2)Man(a1-6)]Man(b1-4)GlcNAc(b1-4)[Fuc(a1-6)]GlcNAc
Summary of the method: as §1

[20] = target: Gal(b1-3)[Fuc(a1-4)]GlcNAc(b1-3)Gal(b1-3)[Fuc(a1-4)]GlcNAc
Summary of the method: as §1

[21] = target: Gal(b1-3)[Fuc(a1-4)]GlcNAc(b1-3)Gal(b1-4)[Fuc(a1-3)]GlcNAc
Summary of the method: as §1

[22] = target: Gal(b1-3)[Fuc(a1-4)]GlcNAc(b1-6)GalNAc
Summary of the method: as §1

[23] = target: Gal(b1-3)[GlcNAc(b1-6)]GalNAc
Summary of the method: as §1

[24] = target: Gal(b1-3)[Neu5Ac(a2-6)]GalNAc
Summary of the method: as §1

[25] = target: Gal(b1-3)[Neu5Ac(a2-6)]GlcNAc(b1-4)Gal(b1-4)Glc
Summary of the method: as §1

[26] = target: Gal(b1-3)[Neu5Ac(b2-6)]GalNAc
Summary of the method: as §1

Gal(b1-4)Gal = target: Gal(b1-4)Gal
Summary of the method: as §1

[27] = target: Gal(b1-4)GalNAc(a1-3)[Fuc(a1-2)]Gal(b1-4)GlcNAc
Summary of the method: as §1

[28] = target: Gal(b1-4)GalNAc(b1-3)[Fuc(a1-2)]Gal(b1-4)GlcNAc
Summary of the method: as §1

Gal(b1-4)Glc = target: Gal(b1-4)Glc
Summary of the method: as §1

Gal(b1-4)Glc6S = target: Gal(b1-4)Glc6S
Summary of the method: as §1

Gal(b1-4)GlcNAc = target: Gal(b1-4)GlcNAc
Summary of the method: as §1

[29] = target: Gal(b1-4)GlcNAc(a1-6)Gal(b1-4)GlcNAc
Summary of the method: as §1

Gal(b1-4)GlcNAc(b1-2)Man = target: Gal(b1-4)GlcNAc(b1-2)Man
Summary of the method: as §1

[30] = target: Gal(b1-4)GlcNAc(b1-2)Man(a1-3)Man(b1-4)GlcNAc(b1-4)GlcNAc
Summary of the method: as §1

[31] = target: Gal(b1-4)GlcNAc(b1-2)Man(a1-3)[Gal(b1-4)GlcNAc(b1-2)Man(a1-6)]Man(b1-4)GlcNAc(b1-4)GlcNAc
Summary of the method: as §1

[32] = target: Gal(b1-4)GlcNAc(b1-2)Man(a1-3)[Gal(b1-4)GlcNAc(b1-2)Man(a1-6)]Man(b1-4)GlcNAc(b1-4)[Fuc(a1-6)]GlcNAc
Summary of the method: as §1

[33] = target: Gal(b1-4)GlcNAc(b1-2)Man(a1-3)[Gal(b1-4)GlcNAc(b1-2)Man(a1-6)][Gal(b1-4)GlcNAc(b1-4)]Man(b1-4)GlcNAc(b1-4)[Fuc(a1-6)]GlcNAc
Summary of the method: as §1

[34] = target: Gal(b1-4)GlcNAc(b1-2)Man(a1-3)[Gal(b1-4)GlcNAc(b1-2)Man(a1-6)][GlcNAc(b1-4)]Man(b1-4)GlcNAc(b1-4)[Fuc(a1-6)]GlcNAc
Summary of the method: as §1

[35] = target: Gal(b1-4)GlcNAc(b1-2)Man(a1-3)[GlcNAc(b1-2)Man(a1-6)]Man(b1-4)GlcNAc(b1-4)GlcNAc
Summary of the method: as §1

[36] = target: Gal(b1-4)GlcNAc(b1-2)Man(a1-3)[GlcNAc(b1-4)][Gal(b1-4)GlcNAc(b1-2)Man(a1-6)]Man(b1-4)GlcNAc(b1-4)GlcNAc
Summary of the method: as §1

[37] = target: Gal(b1-4)GlcNAc(b1-2)Man(a1-3)[Man(a1-6)]Man(b1-4)GlcNAc(b1-4)GlcNAc
Summary of the method: as §1

[38] = target: Gal(b1-4)GlcNAc(b1-2)Man(a1-6)Man(b1-4)GlcNAc(b1-4)GlcNAc
Summary of the method: as §1

[39] = target: Gal(b1-4)GlcNAc(b1-2)Man(a1-6)[GlcNAc(b1-2)Man(a1-3)]Man(b1-4)GlcNAc(b1-4)GlcNAc
Summary of the method: as §1

B1: Loc1 (Escherichia coli) (protein)
chain: APCALTNVGEQRGTYILKPLSMKGNLTAEKIENTGNIIECTDLQETTNAIKVHFLTQNALKFKVGSRHYIINFPFEYDGKKIELPGKSSYNLEEMLSAINFTIPYSIASVSDSSNTADIFPGTPFPLLFEIEVSSCTGNNTNCNSVRFNYNLNTILQVNLMTHHHHHH
- glycan array binding signal (z-score) [1]: 0.25
- glycan array binding signal (z-score) [2]: 1.66
- glycan array binding signal (z-score) [3]: -0.619
- glycan array binding signal (z-score) [4]: -0.705
- glycan array binding signal (z-score) [5]: -1.03
- glycan array binding signal (z-score) [6]: 0.088
- glycan array binding signal (z-score) [7]: -1.15
- glycan array binding signal (z-score) [8]: 1.36
- glycan array binding signal (z-score) [9]: -0.715
- glycan array binding signal (z-score) [10]: -0.418
- glycan array binding signal (z-score) [11]: -0.579
- glycan array binding signal (z-score) [12]: -0.657
- glycan array binding signal (z-score) [13]: -0.239
- glycan array binding signal (z-score) [14]: 0.216
- glycan array binding signal (z-score) [15]: -0.335
- glycan array binding signal (z-score) [16]: -0.825
- glycan array binding signal (z-score) (Gal(b1-3)GlcNAc6S): -0.688
- glycan array binding signal (z-score) [17]: -0.549
- glycan array binding signal (z-score) [18]: -0.686
- glycan array binding signal (z-score) [19]: 0.447
- glycan array binding signal (z-score) [20]: -0.396
- glycan array binding signal (z-score) [21]: 0.749
- glycan array binding signal (z-score) [22]: -0.328
- glycan array binding signal (z-score) [23]: -0.425
- glycan array binding signal (z-score) [24]: 0.066
- glycan array binding signal (z-score) [25]: -0.233
- glycan array binding signal (z-score) [26]: -0.419
- glycan array binding signal (z-score) (Gal(b1-4)Gal): 1.58
- glycan array binding signal (z-score) [27]: -0.103
- glycan array binding signal (z-score) [28]: -0.549
- glycan array binding signal (z-score) (Gal(b1-4)Glc): -0.186
- glycan array binding signal (z-score) (Gal(b1-4)Glc6S): 0.386
- glycan array binding signal (z-score) (Gal(b1-4)GlcNAc): -0.092
- glycan array binding signal (z-score) [29]: -0.134
- glycan array binding signal (z-score) (Gal(b1-4)GlcNAc(b1-2)Man): -0.527
- glycan array binding signal (z-score) [30]: 0.511
- glycan array binding signal (z-score) [31]: 0.274
- glycan array binding signal (z-score) [32]: 1.18
- glycan array binding signal (z-score) [33]: -0.599
- glycan array binding signal (z-score) [34]: -0.461
- glycan array binding signal (z-score) [35]: -0.279
- glycan array binding signal (z-score) [36]: 0.088
- glycan array binding signal (z-score) [37]: -0.747
- glycan array binding signal (z-score) [38]: -0.983
- glycan array binding signal (z-score) [39]: 1.05
